Test results reported in the M2OR odorant receptor database.
The list shows a part of the results, in another mix than the full data. The calls were merged from several studies; some rest on single wells.

Sequences of proteins named here, by UniProt entry; tags and fusion partners are left off. A line that says so, or that is headed by a name, gives the form on record, which may keep a tag or linker.
UniProt Q7TS37, as listed by the source: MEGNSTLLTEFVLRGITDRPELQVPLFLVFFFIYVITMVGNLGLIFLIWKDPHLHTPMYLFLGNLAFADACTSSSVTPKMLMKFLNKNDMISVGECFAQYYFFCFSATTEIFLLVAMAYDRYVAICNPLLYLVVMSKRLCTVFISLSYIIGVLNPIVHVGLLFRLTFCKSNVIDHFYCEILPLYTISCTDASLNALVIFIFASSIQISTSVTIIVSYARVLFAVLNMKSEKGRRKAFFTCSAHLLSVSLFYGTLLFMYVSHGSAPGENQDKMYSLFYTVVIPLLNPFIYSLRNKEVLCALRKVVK
UniProt Q7TS40, as listed by the source: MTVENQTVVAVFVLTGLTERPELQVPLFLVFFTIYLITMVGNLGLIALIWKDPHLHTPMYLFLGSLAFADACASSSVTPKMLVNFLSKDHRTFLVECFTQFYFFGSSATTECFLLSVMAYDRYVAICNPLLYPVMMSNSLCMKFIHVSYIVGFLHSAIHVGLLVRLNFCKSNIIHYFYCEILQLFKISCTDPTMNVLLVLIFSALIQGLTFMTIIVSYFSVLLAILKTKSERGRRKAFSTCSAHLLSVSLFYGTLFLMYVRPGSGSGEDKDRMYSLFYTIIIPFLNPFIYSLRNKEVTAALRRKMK
UniProt Q8VF06, as listed by the source: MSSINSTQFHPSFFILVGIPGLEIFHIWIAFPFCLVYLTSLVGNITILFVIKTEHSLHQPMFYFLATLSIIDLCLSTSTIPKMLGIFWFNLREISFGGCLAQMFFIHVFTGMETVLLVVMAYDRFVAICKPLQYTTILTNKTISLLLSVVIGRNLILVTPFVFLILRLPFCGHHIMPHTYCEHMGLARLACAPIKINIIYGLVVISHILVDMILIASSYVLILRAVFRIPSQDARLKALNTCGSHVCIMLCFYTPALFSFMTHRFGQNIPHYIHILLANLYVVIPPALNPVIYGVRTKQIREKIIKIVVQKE
UniProt Q8VF73, as listed by the source: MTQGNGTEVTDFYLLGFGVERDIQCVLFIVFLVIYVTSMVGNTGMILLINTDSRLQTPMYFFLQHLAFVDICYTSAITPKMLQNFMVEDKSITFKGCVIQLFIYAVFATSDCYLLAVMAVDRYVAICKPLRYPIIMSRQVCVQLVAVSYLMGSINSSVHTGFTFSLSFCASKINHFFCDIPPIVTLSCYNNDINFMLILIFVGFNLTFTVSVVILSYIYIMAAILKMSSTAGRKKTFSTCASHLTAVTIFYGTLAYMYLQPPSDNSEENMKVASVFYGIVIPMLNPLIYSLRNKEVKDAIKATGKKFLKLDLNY
UniProt Q8VFB8, as listed by the source: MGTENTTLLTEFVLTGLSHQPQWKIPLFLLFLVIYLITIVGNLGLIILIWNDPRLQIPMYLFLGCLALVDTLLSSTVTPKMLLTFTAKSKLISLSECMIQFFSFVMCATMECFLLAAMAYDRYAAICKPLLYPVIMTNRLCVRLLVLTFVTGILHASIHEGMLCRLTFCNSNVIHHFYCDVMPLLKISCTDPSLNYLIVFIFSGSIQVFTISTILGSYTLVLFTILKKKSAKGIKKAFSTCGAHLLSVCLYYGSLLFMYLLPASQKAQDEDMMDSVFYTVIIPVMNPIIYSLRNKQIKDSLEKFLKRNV
UniProt Q8VFQ6, as listed by the source: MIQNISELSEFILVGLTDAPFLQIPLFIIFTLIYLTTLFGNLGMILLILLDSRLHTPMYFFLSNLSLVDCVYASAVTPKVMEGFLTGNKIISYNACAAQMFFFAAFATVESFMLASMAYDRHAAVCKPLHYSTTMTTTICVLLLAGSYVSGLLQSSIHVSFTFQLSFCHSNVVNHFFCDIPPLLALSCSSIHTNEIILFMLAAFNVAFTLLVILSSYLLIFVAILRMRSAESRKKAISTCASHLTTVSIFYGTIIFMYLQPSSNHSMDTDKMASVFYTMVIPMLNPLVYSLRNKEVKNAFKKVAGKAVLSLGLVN
UniProt Q8VG26, as listed by the source: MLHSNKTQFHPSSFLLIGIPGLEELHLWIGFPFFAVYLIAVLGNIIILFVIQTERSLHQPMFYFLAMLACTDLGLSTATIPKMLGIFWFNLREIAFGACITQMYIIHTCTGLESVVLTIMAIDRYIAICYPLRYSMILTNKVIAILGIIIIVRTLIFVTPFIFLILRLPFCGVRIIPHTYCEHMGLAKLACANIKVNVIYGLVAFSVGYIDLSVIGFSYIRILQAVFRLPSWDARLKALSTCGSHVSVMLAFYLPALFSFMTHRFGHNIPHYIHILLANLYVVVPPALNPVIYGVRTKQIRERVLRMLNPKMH

Key:
Details in all cases: stereoisomer not certain
UniProt Q7TS37 = target: UniProt Q7TS37
Summary of the method: (§1)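 Each entry records the cell line, G-protein, co-transfected protein and tags used. Methods varied with the source, often transient luciferase assays in mammalian cell lines. A receptor–molecule pair is called responsive (active) if the original authors judged its signal statistically different from baseline and non-responsive (inactive) otherwise.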

UniProt Q7TS40 = target: UniProt Q7TS40
Summary of the method: as §1

UniProt Q8VEU7 = target: T1, UniProt Q8VEU7
T1 sequence (whole entry): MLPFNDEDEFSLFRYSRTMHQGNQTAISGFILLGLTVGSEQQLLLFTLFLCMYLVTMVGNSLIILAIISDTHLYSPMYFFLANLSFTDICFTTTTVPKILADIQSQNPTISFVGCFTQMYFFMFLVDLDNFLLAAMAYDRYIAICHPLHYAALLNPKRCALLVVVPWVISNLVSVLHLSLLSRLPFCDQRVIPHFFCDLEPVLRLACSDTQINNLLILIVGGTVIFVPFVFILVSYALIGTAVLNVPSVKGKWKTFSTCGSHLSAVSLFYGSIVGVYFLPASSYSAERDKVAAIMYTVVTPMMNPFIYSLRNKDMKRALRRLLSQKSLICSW
Summary of the method: as §1

UniProt Q8VF05 = target: T2, UniProt Q8VF05
T2 sequence (whole entry): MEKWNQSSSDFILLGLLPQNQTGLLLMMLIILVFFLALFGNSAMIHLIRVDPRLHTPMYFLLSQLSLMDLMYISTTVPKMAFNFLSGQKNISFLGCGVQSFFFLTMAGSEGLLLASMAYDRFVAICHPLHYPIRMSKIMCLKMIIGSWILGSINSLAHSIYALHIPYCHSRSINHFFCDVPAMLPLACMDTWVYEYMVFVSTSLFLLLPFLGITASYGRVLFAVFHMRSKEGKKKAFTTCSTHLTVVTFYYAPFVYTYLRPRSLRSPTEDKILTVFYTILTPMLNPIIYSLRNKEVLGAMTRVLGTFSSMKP
Summary of the method: as §1

UniProt Q8VF06 = target: UniProt Q8VF06
Summary of the method: as §1

UniProt Q8VF24 = target: T3, UniProt Q8VF24
T3 sequence (whole entry): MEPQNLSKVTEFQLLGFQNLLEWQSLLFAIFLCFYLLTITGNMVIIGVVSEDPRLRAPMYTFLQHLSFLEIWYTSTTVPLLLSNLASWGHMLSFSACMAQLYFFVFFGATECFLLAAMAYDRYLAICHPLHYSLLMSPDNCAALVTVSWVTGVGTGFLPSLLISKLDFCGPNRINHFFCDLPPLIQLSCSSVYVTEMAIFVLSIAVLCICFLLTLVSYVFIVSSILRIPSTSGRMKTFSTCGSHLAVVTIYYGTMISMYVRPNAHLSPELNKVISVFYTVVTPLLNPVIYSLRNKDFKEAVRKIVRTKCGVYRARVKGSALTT
Summary of the method: as §1

UniProt Q8VF43 = target: T4, UniProt Q8VF43
T4 sequence (whole entry): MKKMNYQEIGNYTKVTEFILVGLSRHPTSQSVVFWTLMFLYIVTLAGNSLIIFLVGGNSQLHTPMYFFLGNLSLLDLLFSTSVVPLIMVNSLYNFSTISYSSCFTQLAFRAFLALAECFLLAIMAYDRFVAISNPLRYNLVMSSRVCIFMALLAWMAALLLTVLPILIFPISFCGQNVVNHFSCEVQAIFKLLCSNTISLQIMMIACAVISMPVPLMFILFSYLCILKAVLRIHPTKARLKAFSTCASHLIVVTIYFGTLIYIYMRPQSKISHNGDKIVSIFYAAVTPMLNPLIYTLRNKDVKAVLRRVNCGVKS
Summary of the method: as §1

UniProt Q8VF44 = target: T5, UniProt Q8VF44
T5 sequence (whole entry): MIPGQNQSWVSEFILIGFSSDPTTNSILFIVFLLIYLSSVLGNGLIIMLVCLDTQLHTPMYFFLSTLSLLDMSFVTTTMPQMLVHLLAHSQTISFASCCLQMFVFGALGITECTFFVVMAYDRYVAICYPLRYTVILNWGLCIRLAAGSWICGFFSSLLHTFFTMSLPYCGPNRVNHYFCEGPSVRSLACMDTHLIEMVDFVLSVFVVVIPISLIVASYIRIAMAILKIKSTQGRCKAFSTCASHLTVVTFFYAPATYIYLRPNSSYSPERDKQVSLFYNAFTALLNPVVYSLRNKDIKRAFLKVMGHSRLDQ
Summary of the method: as §1

UniProt Q8VF52 = target: T6, UniProt Q8VF52
T6 sequence (whole entry): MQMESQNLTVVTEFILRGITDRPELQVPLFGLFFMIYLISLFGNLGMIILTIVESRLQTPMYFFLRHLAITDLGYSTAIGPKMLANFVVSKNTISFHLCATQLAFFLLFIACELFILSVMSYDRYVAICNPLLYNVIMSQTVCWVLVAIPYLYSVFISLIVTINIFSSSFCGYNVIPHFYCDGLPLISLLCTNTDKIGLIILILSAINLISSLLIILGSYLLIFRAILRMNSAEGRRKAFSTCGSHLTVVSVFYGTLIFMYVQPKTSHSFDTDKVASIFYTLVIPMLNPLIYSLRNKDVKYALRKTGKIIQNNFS
Summary of the method: as §1

UniProt Q8VF73 = target: UniProt Q8VF73
Summary of the method: as §1

UniProt Q8VFB8 = target: UniProt Q8VFB8
Summary of the method: as §1

UniProt Q8VFG6 = target: T7, UniProt Q8VFG6
T7 sequence (whole entry): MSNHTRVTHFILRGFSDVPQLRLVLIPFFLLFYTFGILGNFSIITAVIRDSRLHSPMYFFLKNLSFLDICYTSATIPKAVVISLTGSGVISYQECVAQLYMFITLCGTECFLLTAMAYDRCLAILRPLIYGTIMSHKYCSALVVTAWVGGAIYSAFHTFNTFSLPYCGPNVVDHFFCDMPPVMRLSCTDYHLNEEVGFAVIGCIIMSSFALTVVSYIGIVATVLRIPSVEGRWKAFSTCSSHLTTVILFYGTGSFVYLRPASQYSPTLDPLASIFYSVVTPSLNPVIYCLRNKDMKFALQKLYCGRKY
Summary of the method: as §1

UniProt Q8VFM8 = target: T8, UniProt Q8VFM8
T8 sequence (whole entry): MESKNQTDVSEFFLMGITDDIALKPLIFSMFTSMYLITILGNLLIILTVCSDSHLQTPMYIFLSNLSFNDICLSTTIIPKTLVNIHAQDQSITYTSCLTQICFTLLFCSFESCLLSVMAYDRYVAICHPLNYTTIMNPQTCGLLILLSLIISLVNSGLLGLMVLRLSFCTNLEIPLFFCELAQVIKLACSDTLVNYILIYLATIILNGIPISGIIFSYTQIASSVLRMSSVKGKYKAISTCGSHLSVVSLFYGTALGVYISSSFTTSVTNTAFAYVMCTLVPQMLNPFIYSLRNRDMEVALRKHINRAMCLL
Summary of the method: as §1

UniProt Q8VFP5 = target: T9, UniProt Q8VFP5
T9 sequence (whole entry): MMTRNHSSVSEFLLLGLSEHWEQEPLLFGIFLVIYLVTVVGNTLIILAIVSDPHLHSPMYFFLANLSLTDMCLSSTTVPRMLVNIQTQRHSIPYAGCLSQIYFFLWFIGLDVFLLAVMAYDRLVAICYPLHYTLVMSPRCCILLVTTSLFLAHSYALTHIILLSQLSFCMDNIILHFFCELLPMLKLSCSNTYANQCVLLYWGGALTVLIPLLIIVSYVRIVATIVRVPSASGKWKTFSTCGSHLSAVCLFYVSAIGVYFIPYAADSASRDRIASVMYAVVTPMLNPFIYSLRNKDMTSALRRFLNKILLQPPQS
Summary of the method: as §1

UniProt Q8VFQ6 = target: UniProt Q8VFQ6
Summary of the method: as §1

UniProt Q8VFZ6 = target: T10, UniProt Q8VFZ6
T10 sequence (whole entry): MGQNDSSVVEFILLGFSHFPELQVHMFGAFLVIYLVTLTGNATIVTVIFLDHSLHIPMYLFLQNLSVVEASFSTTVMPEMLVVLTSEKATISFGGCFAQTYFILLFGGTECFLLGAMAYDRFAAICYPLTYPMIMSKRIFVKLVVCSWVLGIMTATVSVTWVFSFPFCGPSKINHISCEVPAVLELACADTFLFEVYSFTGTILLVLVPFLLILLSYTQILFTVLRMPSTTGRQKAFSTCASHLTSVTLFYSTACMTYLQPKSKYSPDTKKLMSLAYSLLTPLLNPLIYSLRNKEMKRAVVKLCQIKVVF
Summary of the method: as §1

UniProt Q8VG01 = target: T11, UniProt Q8VG01
T11 sequence (whole entry): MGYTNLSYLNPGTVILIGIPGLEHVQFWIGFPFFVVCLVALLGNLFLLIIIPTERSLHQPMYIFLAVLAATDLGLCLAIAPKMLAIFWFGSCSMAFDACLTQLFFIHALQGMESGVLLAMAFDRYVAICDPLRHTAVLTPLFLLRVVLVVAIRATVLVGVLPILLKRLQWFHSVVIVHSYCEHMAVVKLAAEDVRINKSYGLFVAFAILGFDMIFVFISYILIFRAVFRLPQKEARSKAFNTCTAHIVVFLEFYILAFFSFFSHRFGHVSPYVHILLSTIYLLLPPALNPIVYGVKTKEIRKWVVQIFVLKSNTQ
Summary of the method: as §1

UniProt Q8VG22 = target: T12, UniProt Q8VG22
T12 sequence (whole entry): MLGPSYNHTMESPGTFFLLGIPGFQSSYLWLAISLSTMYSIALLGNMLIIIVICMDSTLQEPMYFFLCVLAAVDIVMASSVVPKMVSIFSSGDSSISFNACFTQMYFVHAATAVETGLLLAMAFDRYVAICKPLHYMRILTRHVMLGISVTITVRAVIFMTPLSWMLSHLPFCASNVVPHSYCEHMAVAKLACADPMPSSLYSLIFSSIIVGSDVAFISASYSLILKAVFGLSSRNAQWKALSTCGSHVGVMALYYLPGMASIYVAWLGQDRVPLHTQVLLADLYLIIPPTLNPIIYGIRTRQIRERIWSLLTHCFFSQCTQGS
Summary of the method: as §1

UniProt Q8VG26 = target: UniProt Q8VG26
Summary of the method: as §1

UniProt Q8VG27 = target: T13, UniProt Q8VG27
T13 sequence (whole entry): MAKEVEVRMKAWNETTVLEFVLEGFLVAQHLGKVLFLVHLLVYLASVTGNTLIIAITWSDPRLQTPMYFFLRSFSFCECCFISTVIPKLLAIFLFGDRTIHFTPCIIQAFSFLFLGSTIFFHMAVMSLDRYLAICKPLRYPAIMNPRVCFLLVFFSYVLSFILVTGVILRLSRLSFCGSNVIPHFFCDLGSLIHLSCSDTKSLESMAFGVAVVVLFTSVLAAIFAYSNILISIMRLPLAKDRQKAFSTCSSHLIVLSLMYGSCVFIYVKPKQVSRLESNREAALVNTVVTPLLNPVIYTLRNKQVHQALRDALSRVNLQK
Summary of the method: as §1

Measured: odorant receptor agonist call

CC(=O)c1ccccc1
active: UniProt Q7TS37 | UniProt Q8VF05 | UniProt Q8VF52 | UniProt Q8VG22
inactive: all other assays above

CC(=O)OC1CC2CCC1(C)C2(C)C (centres undefined)
inactive: UniProt Q8VF43 | UniProt Q8VF52 | UniProt Q8VFM8 | UniProt Q8VFP5 | UniProt Q8VG01 | UniProt Q8VG27

CCCCCCCC=O
not listed: UniProt Q7TS37 | UniProt Q7TS40 | UniProt Q8VF06 | UniProt Q8VF73 | UniProt Q8VFB8 | UniProt Q8VFQ6 | UniProt Q8VG26
inactive: all other assays above

CC(C)(O)CCCC1=CCC(C=O)CC1 (centres undefined)
not listed: UniProt Q7TS37 | UniProt Q7TS40 | UniProt Q8VF06 | UniProt Q8VF73 | UniProt Q8VFB8 | UniProt Q8VFQ6 | UniProt Q8VG26
inactive: all other assays above

CC1COCc2cc3c(cc21)C(C)(C)C(C)C3(C)C (centres undefined)
inactive: UniProt Q8VF43 | UniProt Q8VF52 | UniProt Q8VFM8 | UniProt Q8VFP5 | UniProt Q8VG01 | UniProt Q8VG27

COC(=O)c1ccccc1O
inactive: UniProt Q8VF43 | UniProt Q8VF52 | UniProt Q8VFM8 | UniProt Q8VFP5 | UniProt Q8VG01 | UniProt Q8VG27
